Measured data: PubChem BioAssay AID743121 (NCATS, 2013)
The deposit covers about 26,000 reagents; shown is a part drawn at random. In the full data, 167 (0.63%) are marked active. 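Calls are per gene from RSA p-values that are not deposited; an individual active-marked siRNA can sensitise only weakly.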 A number with no mark means an inactive call. Reagents against one gene are numbered here. Further read-outs or replicates are left out here.

Test: 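Partners whose loss is lethal together with topoisomerase I blockade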 (primary screen)
Cell system: MDA-MB-231 cells, a human breast cancer line
Reagent: single siRNA against human genes, 20 nM siRNA (0.8 pmol per well)
Duration: 120 h (drug added 48 h after transfection, read 72 h later)
Treatment: camptothecin 20 nM (about EC30) for 72 h; vehicle 0.1% DMSO in parallel plates
Measured: 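CellTiter-Glo ATP signal, scaled to control siRNA as percent viability; sensitisation given as log2 of untreated divided by camptothecin-treated viability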
Direction: log2 vehicle/camptothecin viability: higher = stronger sensitisation to camptothecin
Active means: 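Each gene scored by redundant siRNA activity (RSA) over its individual siRNA ratios; a gene is called active at p < 0.001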

BCS1L (BCS1 ubiquinol-cytochrome c reductase complex chaperone) #1: log2 vehicle/camptothecin viability = -0.461
BCS1L (BCS1 ubiquinol-cytochrome c reductase complex chaperone) #2: log2 vehicle/camptothecin viability = 0.159
BCS1L (BCS1 ubiquinol-cytochrome c reductase complex chaperone) #3: log2 vehicle/camptothecin viability = -0.0295
BCS1L (BCS1 ubiquinol-cytochrome c reductase complex chaperone) #4: log2 vehicle/camptothecin viability = -0.366
BCS1L (BCS1 ubiquinol-cytochrome c reductase complex chaperone) #5: log2 vehicle/camptothecin viability = -0.579
BCS1L (BCS1 ubiquinol-cytochrome c reductase complex chaperone) #6: log2 vehicle/camptothecin viability = -0.363
BCS1L (BCS1 ubiquinol-cytochrome c reductase complex chaperone) #7: log2 vehicle/camptothecin viability = 0.778
BCS1L (BCS1 ubiquinol-cytochrome c reductase complex chaperone) #8: log2 vehicle/camptothecin viability = 0.503
TRAPPC10 (trafficking protein particle complex subunit 10) #1: log2 vehicle/camptothecin viability = -0.227
TRAPPC10 (trafficking protein particle complex subunit 10) #2: log2 vehicle/camptothecin viability = -0.36
TRAPPC10 (trafficking protein particle complex subunit 10) #3: log2 vehicle/camptothecin viability = 0.283
TRAPPC10 (trafficking protein particle complex subunit 10) #4: log2 vehicle/camptothecin viability = 0.161
RBCK1 (RANBP2-type and C3HC4-type zinc finger containing 1) #1: log2 vehicle/camptothecin viability = -0.224
RBCK1 (RANBP2-type and C3HC4-type zinc finger containing 1) #2: log2 vehicle/camptothecin viability = 0.0571
RBCK1 (RANBP2-type and C3HC4-type zinc finger containing 1) #3: log2 vehicle/camptothecin viability = -0.0725
OR6C3 (olfactory receptor family 6 subfamily C member 3) #1: log2 vehicle/camptothecin viability = -0.354
OR6C3 (olfactory receptor family 6 subfamily C member 3) #2: log2 vehicle/camptothecin viability = -0.0441
OR6C3 (olfactory receptor family 6 subfamily C member 3) #3: log2 vehicle/camptothecin viability = -0.321
OR6C3 (olfactory receptor family 6 subfamily C member 3) #4: log2 vehicle/camptothecin viability = 0.766
TYRP1 (tyrosinase related protein 1) #1: log2 vehicle/camptothecin viability = 0.0897
TYRP1 (tyrosinase related protein 1) #2: log2 vehicle/camptothecin viability = -0.298
TYRP1 (tyrosinase related protein 1) #3: log2 vehicle/camptothecin viability = -0.258
TYRP1 (tyrosinase related protein 1) #4: log2 vehicle/camptothecin viability = -0.19
GTF2B (general transcription factor IIB) #1: log2 vehicle/camptothecin viability = -0.0506
GTF2B (general transcription factor IIB) #2: log2 vehicle/camptothecin viability = -0.0917
GTF2B (general transcription factor IIB) #3: log2 vehicle/camptothecin viability = -0.292
GTF2B (general transcription factor IIB) #4: log2 vehicle/camptothecin viability = 0.127
KCNK16 (potassium two pore domain channel subfamily K member 16) #1: log2 vehicle/camptothecin viability = -0.459
KCNK16 (potassium two pore domain channel subfamily K member 16) #2: log2 vehicle/camptothecin viability = 0.0362
KCNK16 (potassium two pore domain channel subfamily K member 16) #3: log2 vehicle/camptothecin viability = 0.0249
KCNK16 (potassium two pore domain channel subfamily K member 16) #4: log2 vehicle/camptothecin viability = -0.327
PAK3 (p21 (RAC1) activated kinase 3) #1: log2 vehicle/camptothecin viability = 0.308
PAK3 (p21 (RAC1) activated kinase 3) #2: log2 vehicle/camptothecin viability = -0.571
PAK3 (p21 (RAC1) activated kinase 3) #3: log2 vehicle/camptothecin viability = 0.147
PAK3 (p21 (RAC1) activated kinase 3) #4: log2 vehicle/camptothecin viability = -0.123
UNC119 (unc-119 lipid binding chaperone) #1: log2 vehicle/camptothecin viability = 0.473
UNC119 (unc-119 lipid binding chaperone) #2: log2 vehicle/camptothecin viability = -0.284
UNC119 (unc-119 lipid binding chaperone) #3: log2 vehicle/camptothecin viability = -0.469
SLC25A24 #1: log2 vehicle/camptothecin viability = 0.0641
SLC25A24 #2: log2 vehicle/camptothecin viability = -0.352
SLC25A24 #3: log2 vehicle/camptothecin viability = 0.593
CNTNAP1 (contactin associated protein 1) #1: log2 vehicle/camptothecin viability = -0.22
CNTNAP1 (contactin associated protein 1) #2: log2 vehicle/camptothecin viability = 0.101
CNTNAP1 (contactin associated protein 1) #3: log2 vehicle/camptothecin viability = 0.646
CNTNAP1 (contactin associated protein 1) #4: log2 vehicle/camptothecin viability = -0.48

6 entries from above in another layout:
gene knocked down | reagent no. | log2 vehicle/camptothecin viability
UNC119 (unc-119 lipid binding chaperone) | 1 | 0.473
UNC119 (unc-119 lipid binding chaperone) | 2 | -0.284
UNC119 (unc-119 lipid binding chaperone) | 3 | -0.469
SLC25A24 | 1 | 0.0641
SLC25A24 | 2 | -0.352
SLC25A24 | 3 | 0.593
